# Laboratory results: PubChem BioAssay AID1224829 (NIAID, 2016)
# Aim: 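Follow-up of TLR4-NF-kappaB regulators using six separate siRNAs for each gene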 (follow-up of hits)
# Cells: mouse RAW264.7 G9 macrophage reporter cells
# Reagent: single siRNA against mouse genes, 100 nM
# Time to read-out: 2 days of siRNA knock-down, then 40 min of LPS before fixing
# Challenge: LPS (Salmonella minnesota R595) at 10 ng/ml
# Measured: 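Imaging of GFP-p65 after 40 min of LPS; nuclear over perinuclear ring intensity ratio, scaled to plate median and non-targeting control wells, given as z-score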
# Direction: p65 translocation z-score: higher = more nuclear NF-kappaB p65 after LPS
# Hit rule: 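Active means the replicate-mean z-score lies beyond plus or minus 2, in either direction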
# Meaning of the calls: active = changed p65 translocation (either direction); inactive = no clear change
# Here is one part, drawn at random, of about 3,800 deposited reagents. 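Calls cover raised and lowered translocation; gene median uses one vendor's three siRNAs; qiagen siRNAs acted more weakly than ambion siRNAs.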 Reagents against one gene are numbered here. Further read-outs or replicates are left out here.
gene symbol,siRNA no.,siRNA vendor or control pool,"p65 translocation z-score, replicate mean","p65 translocation z-score, replicate 1","p65 translocation z-score, replicate 2",activity call
Zfp428,1,ambion single siRNA,-0.756,-1.26,-0.256,inactive
Zfp428,2,ambion single siRNA,-3.15,-3.8,-2.5,active
Zfp428,3,ambion single siRNA,-3.97,-4.12,-3.81,active
Zfp428,4,qiagen single siRNA,2.07,0.894,3.24,active
Zfp428,5,qiagen single siRNA,-1.2,-1.26,-1.15,inactive
Zfp428,6,qiagen single siRNA,1.08,0.586,1.58,inactive
Mcoln2,1,ambion single siRNA,-3.33,-4.25,-2.41,active
Mcoln2,2,ambion single siRNA,-2.62,-1.82,-3.42,active
Mcoln2,3,ambion single siRNA,-0.701,-0.323,-1.08,inactive
Mcoln2,4,qiagen single siRNA,-0.0984,0.611,-0.808,inactive
Mcoln2,5,qiagen single siRNA,0.177,-0.503,0.857,inactive
Mcoln2,6,qiagen single siRNA,-0.688,-1.54,0.162,inactive

2 consecutive entries already listed, for reference:
gene symbol,siRNA no.,siRNA vendor or control pool,"p65 translocation z-score, replicate mean","p65 translocation z-score, replicate 1","p65 translocation z-score, replicate 2",activity call
Zfp428,2,ambion single siRNA,-3.15,-3.8,-2.5,active
Zfp428,3,ambion single siRNA,-3.97,-4.12,-3.81,active

The results go on.
gene symbol,siRNA no.,siRNA vendor or control pool,"p65 translocation z-score, replicate mean","p65 translocation z-score, replicate 1","p65 translocation z-score, replicate 2",activity call
Crisp1,1,ambion single siRNA,2.24,2.82,1.67,active
Crisp1,2,ambion single siRNA,-2.72,-1.87,-3.56,active
Crisp1,3,ambion single siRNA,-1.83,-2.2,-1.47,inactive
Crisp1,4,qiagen single siRNA,1.91,0.171,3.64,inactive
Crisp1,5,qiagen single siRNA,-0.518,0.48,-1.52,inactive
Crisp1,6,qiagen single siRNA,-2.65,-1.59,-3.7,active
Adsl,1,ambion single siRNA,2.46,3.63,1.28,active
Adsl,2,ambion single siRNA,-1.47,-1.67,-1.27,inactive
Adsl,3,ambion single siRNA,-2.47,-2.87,-2.06,active
Adsl,4,qiagen single siRNA,-0.443,-0.414,-0.472,inactive
Adsl,5,qiagen single siRNA,1.02,-0.0289,2.08,inactive
Adsl,6,qiagen single siRNA,0.565,0.451,0.678,inactive
